Assay results from publication PMC10390781.

The chains behind the UniProt entries cited, without tags or fusion partners.
UniProt Q9UKT9: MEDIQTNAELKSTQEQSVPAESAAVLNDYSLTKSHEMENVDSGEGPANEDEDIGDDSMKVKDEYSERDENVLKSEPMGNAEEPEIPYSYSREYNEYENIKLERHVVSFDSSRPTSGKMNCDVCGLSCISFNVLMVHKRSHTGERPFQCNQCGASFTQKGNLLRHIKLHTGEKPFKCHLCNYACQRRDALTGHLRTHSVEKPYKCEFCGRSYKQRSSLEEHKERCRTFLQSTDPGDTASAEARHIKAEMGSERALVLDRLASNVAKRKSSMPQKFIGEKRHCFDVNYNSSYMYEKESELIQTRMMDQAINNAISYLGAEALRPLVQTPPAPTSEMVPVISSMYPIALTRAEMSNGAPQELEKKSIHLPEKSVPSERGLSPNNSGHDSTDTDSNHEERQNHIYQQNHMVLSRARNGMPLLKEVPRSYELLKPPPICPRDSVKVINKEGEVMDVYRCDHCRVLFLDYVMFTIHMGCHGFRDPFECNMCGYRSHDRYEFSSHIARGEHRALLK

Target: glucocorticoid receptor (human (endogenous in MM.1S)) (UniProt P04150)
Test: affinity purification with mass spectrometry; RIME (rapid immunoprecipitation mass spectrometry of endogenous protein) by Active Motif; MM.1S cells exposed to Dex 0.1 uM for 1 h and fixed; GR (H-300) antibody, GR as bait; proteins found in the IgG negative control and with spectral count < …; proteins identified in both replicates

Row | binding | Molecule
1 | binds | IKZF1 (from UniProt Q13422 1-519)
2 | binds | IKZF3 (from UniProt Q9UKT9 1-509)
3 | binds | IRF4 transcription factor (protein, UniProt Q15306 1-451) MNLEGGGRGGEFGMSAVSCGNGKLRQWLIDQIDSGKYPGLVWENEEKSIFRIPWKHAGKQDYNREEDAALFKAWALFKGKFREGIDKPDPPTWKTRLRCALNKSNDFEELVERSQLDISDPYKVYRIVPEGAKKGAKQLTLEDPQMSMSHPYTMTTPYPSLPAQQVHNYMMPPLDRSWRDYVPDQPHPEIPYQCPMTFGPRGHHWQGPACENGCQVTGTFYACAPPESQAPGVPTEPSIRSAEALAFSDCRLHICLYYREILVKELTTSSPEGCRISHGHTYDASNLDQVLFPYPEDNGQRKNIEKLLSHLERGVVLWMAPDGLYAKRLCQSRIYWDGPLALCNDRPNKLERDQTCKLFDTQQFLSELQAFAHHGRSLPRFQVTLCFGEEFPDPQRQRKLITAHVEPLLARQLYYFAQQNSGHFLRGYDLPEHISNPEDYHRSIRHSSIQE

No constants are given. Whether binding was seen depends on the method and setting. In cells and extracts the contact can be indirect. A yes stands for co-enrichment or nearness to the bait. Other partners may have been found.
